The results in this text go back to PubChem BioAssay AID445 (National Center for Advancing Translational Sciences (NCATS), 2006).

This assay is described as follows: IkB Signaling. The conditions noted are these: ABC-DLBCL IkBa-CBG/CBR dual luciferase ratio (green luciferase fused to IkBa over red control in OCI-Ly3 lymphoma cells), 4 h. The procedure, abridged:
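Luminescence ratio of IκBα-fused green versus native red beetle luciferase in OCI-Ly3 cells, 4 h post-doxycycline with compound; red signal alone, scaled from basal (0%) to zero light (-100%), flagged nonspecific or cytotoxic effects.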

[1] abbreviates: measured here: control luc red channel unless noted.
The mark [2] stands for this setting: measured here: IkB-luc green channel.
[3] abbreviates: measured here: control luc red channel.

Molecules are shown by their SMILES. The list shows a part of the results. The main result of the screen is listed elsewhere. These columns were measured beside it and carry no call. The list favours compounds with an active or inconclusive main result. The note in brackets gives the kind of curve behind each potency; many fits are weak.

Regarding `Cc1ccc2cc(C(c3nnnn3Cc3ccccc3)N3CCN(c4ccccc4)CC3)c(=O)[nH]c2c1` (configuration not stated), the AC50 under setting [1] is 10 µM [falling, partial curve].
Regarding `Cc1c(C(=O)O)oc2c1-c1nn(Cc3ccc(Cl)cc3)cc1CC2`, the AC50 under setting [1] was 10 µM [falling, partial curve].
On the same count and under the same terms, as for `CCOc1ccc(C(c2c(O)cc(C)n(Cc3ccco3)c2=O)N2CCCCC2)cc1` (configuration not stated), the figure is 31.6 µM [falling, partial curve, poor fit]; as for `Cc1cc(Cl)ccc1OCC(=O)N1CCC(c2nc3ccccc3s2)CC1`, 39.8 µM [falling, single point].
On the same count and under the same terms, with `Cc1ccn2c(Nc3ccc(C(C)C)cc3)c(-c3cccnc3)nc2c1` the figure was 25.1 µM [falling, partial curve].
As for `Cc1cccc2cc(CN(CCCO)C(=O)Nc3cccc(Cl)c3)c(=O)[nH]c12`, the AC50 under setting [1] is 12.6 µM [falling, partial curve].
On the same count and under the same terms, as for `Cc1cccc(C(=O)Nc2ccc3nc(SCCOc4ccccc4)sc3c2)c1`, the figure is 0.0794 µM [falling, full curve, poor fit]; as for `COc1ccc(C2C=C(c3ccccc3)Nc3nc(NC(=O)/C=C/c4ccccc4Cl)nn32)cc1` (configuration not stated), 5.01 µM [rising, partial curve].
For `CCc1cnc2c(c1SCC(=O)NCc1ccc(F)cc1)c(=O)n(C)c(=O)n2C`, the AC50 under setting [2] is 7.94 µM [rising, full curve] and the AC50 under setting [3] is 5.01 µM [rising, full curve, poor fit].
In the case of `Nc1ncc(S(=O)(=O)Nc2ccc(F)cc2F)cn1`, the AC50 under setting [1] was 25.1 µM [falling, single point].
The same measure, in the same setting: as for `COc1ccc(Cl)cc1NC(=O)Cn1c(=O)c(-c2ccccc2NC(C)=O)nc2ccccc21`, the figure is 0.158 µM [rising, full curve]; as for `CCOC(=O)c1c(NC(=O)COc2cccc(C)c2C)sc(C(C)=O)c1C`, 0.501 µM [falling, full curve, poor fit].
Still for that read-out and setting: as for `OC(COc1ccc(Cl)cc1)CN1CCCCC1` (configuration not stated), the figure is 12.6 µM [rising, partial curve]; as for `COC(=O)c1ccccc1NC(=O)Cn1c(=O)cc(C)c2c(C)nn(C)c21`, 3.16 µM [falling, partial curve].
For the compound `Cc1ccc(Cn2nnc3c(=O)[nH]c(C4CCN(S(=O)(=O)c5ccc(C)cc5)CC4)nc32)cc1`, the AC50 by setting is: under setting [2], 25.1 µM [falling, single point]; under setting [3], 25.1 µM [falling, single point].
Turning to `Cc1ccc(C)c(Cn2c(C(=O)O)c(CNCc3cccs3)c3ccccc32)c1`, under setting [1], the AC50 is 39.8 µM [falling, single point].
The same measure, in the same setting: with `CC(=O)Nc1c(C)nn(-c2ccccc2)c1N1CCC(C(=O)NCc2ccccc2Cl)CC1` the figure was 0.0398 µM [falling, full curve, poor fit]; with `CN(C)S(=O)(=O)c1ccc2c(c1)/C(=C/c1cc3c([nH]1)CCCC3)C(=O)N2`, 15.8 µM [falling, partial curve, poor fit] [measured here: IkB-luc green channel].
Consider `COc1ccc(CCN2C(=O)c3[nH]nc(-c4ccccc4O)c3C2c2ccc(OC)c(OC)c2)cc1` (configuration not stated), for which, under setting [1], the AC50 was 15.8 µM [falling, partial curve].
Same read-out and setting: as for `CC(c1ccco1)N(C(=O)CSc1ccc(Br)cc1)c1ccccn1` (configuration not stated), the figure is 25.1 µM [falling, single point].
On the same count and under the same terms, as for `O=C(COc1ccccc1Cl)Nc1ccc2nc(SCC(=O)N3CCCC3)sc2c1`, the figure is 15.8 µM [falling, partial curve]; as for `COc1ccc(-c2cc(-c3ccccc3)nc(SCC(=O)Nc3ccccc3F)c2C#N)cc1`, 20 µM [rising, partial curve].
Still for that read-out and setting: with `CCOC(=O)C1=C(CS(=O)(=O)c2ccc(OC)c(Cl)c2)NC(=O)NC1c1cccc(OC)c1` (configuration not stated) the figure was 0.316 µM [falling, full curve, poor fit].
Take `N#C/C(=C(/O)COC(=O)CCc1ccc(S(=O)(=O)N2CCOCC2)cc1)c1nc2ccccc2[nH]1`: the AC50 is 25.1 µM [rising, partial curve] under setting [2] and 6.31 µM [falling, partial curve] under setting [3].
Take `O=C(CCCc1ccccc1)NC1CC(=O)N(c2ccc(F)cc2)C1` (configuration not stated): the half-maximal activity concentration (AC50) under setting [1] is 6.31 µM [rising, single point].
Same read-out and setting: with `CCc1cccc(NC(=O)c2ccc(NC(=O)N3CCSc4ncccc43)cc2)c1` the figure was 25.1 µM [falling, partial curve].
With `Cc1ccc(S(=O)(=O)Nc2cc3c(cc2N2CCOCC2)n(C)c(=O)n3C)cc1`, under setting [1], the AC50 is 10 µM [rising, partial curve].
On the same count and under the same terms, as for `Cc1ccc(NC(=O)N2CCN(c3cc(-c4noc(C)n4)ccc3C)CC2)c(F)c1`, the figure is 25.1 µM [falling, single point]; as for `Cn1c(NCc2ccco2)nc2ccccc21`, 10 µM [falling, partial curve].
On the same count and under the same terms, as for `COC(=O)c1cc(C)nc2c1c(=O)nc(SCc1ccccc1C)n2C1CC1`, the figure is 15.8 µM [falling, single point]; as for `Cc1ccc(C(=O)NCC(c2ccc3c(c2)OCO3)N2CCOCC2)cc1` (configuration not stated), 10 µM [rising, partial curve]; as for `Cc1ccc(Cl)cc1NC(=O)Nc1cccc(OCc2cc(=O)n3ccccc3n2)c1`, 0.501 µM [falling, single point].
On the same count and under the same terms, with `COc1ccc(N2CCN(C(=O)C3CCCN(S(=O)(=O)c4cccc5cccnc45)C3)CC2)cc1` (configuration not stated) the figure was 10 µM [falling, partial curve]; with `COc1ccc(-n2c(-c3ccco3)nc3c(cnn3-c3ccccc3Cl)c2=O)cc1`, 31.6 µM [falling, single point].
With `COc1ccc(OC)c(C2=NS(=O)(=O)N(C)C(C(=O)Nc3ccc(F)cc3F)=C2)c1`, the AC50 under setting [1] is 25.1 µM [falling, single point].
As to `O=C(CSc1cn(CC(=O)N2CCCCC2)c2ccccc12)Nc1ccccc1`, the AC50 under setting [1] is 0.398 µM [rising, full curve, poor fit].
In the case of `O=C(O)CCc1ccc(-c2ccccc2)n1Cc1ccco1`, the AC50 under setting [1] was 12.6 µM [falling, single point] [measured here: IkB-luc green channel].
On to `O=C(Cn1c(=O)n(-c2ccccc2)c(=O)c2c3c(sc21)CCCC3)Nc1ccc(F)cc1F`, for which the AC50 under setting [2] was 31.6 µM [rising, single point] and the AC50 under setting [3] is 15.8 µM [falling, partial curve].
Consider `O=C(NCc1noc2ccccc12)N1CCN(c2ccccc2)CC1`, for which the AC50 under setting [1] was 1.58 µM [rising, partial curve, poor fit].
On the same count and under the same terms, as for `CCOc1ccccc1NC(=O)CC1Nc2cc(C)c(C)cc2NC1=O` (configuration not stated), the figure is 3.16 µM [falling, full curve].
The same measure, in the same setting: with `CC1CCN(c2nn3c(=O)c(C(=O)NC(C)C)cnc3s2)CC1` the figure was 12.6 µM [rising, partial curve]; with `COc1ccc(OC)c(CNS(=O)(=O)c2ccc(-c3coc(C)n3)cc2)c1`, 0.316 µM [rising, full curve, poor fit].
The same measure, in the same setting: as for `CC(=O)c1cc(-c2ccccc2)n(CC(=O)Nc2ccc(C)c(C)c2)c1C`, the figure is 39.8 µM [falling, single point].
In the case of `CCOc1ccc(CNC(=O)CS(=O)(=O)c2cccc3nsnc23)cc1`, under setting [1], the AC50 is 1 µM [rising, full curve].
Still for that read-out and setting: as for `CN(C)/C=N/c1sc2c(c1C#N)CCC2`, the figure is 39.8 µM [rising, single point]; as for `COc1ccccc1-c1noc(-c2ccc(NC3CCCC3)c([N+](=O)[O-])c2)n1`, 25.1 µM [falling, single point].
On the same count and under the same terms, with `O=C(CN1CCc2ccccc2C1)Nc1ccccc1N1CCCCCC1` the figure was 15.8 µM [falling, partial curve]; with `Cc1cc(=O)n(Cc2ccccc2)c2c1c(C)nn2C`, 6.31 µM [rising, single point].
Still for that read-out and setting: with `Cc1ccccc1-n1c(SC/C(O)=C(\C#N)c2nc3ccccc3[nH]2)nnc1-c1ccncc1` the figure was 15.8 µM [falling, partial curve]; with `Cc1ccc(Nc2nnc(-c3ccc(C)c(S(=O)(=O)N4CCOCC4)c3)c3ccccc23)cc1`, 3.16 µM [falling, partial curve]; with `CCC(=O)C1=C(c2ccc(OC)c(OC)c2)N(C(=O)CC)n2c(nnc2-c2ccc(C)cc2)S1`, 15.8 µM [falling, partial curve].
Turning to `CCOC(=O)c1ccc(NC(=O)CSc2nc3ccccc3c(=O)n2CCC(=O)NC2CCCCC2)cc1`, under setting [1], the AC50 is 7.94 µM [rising, single point].
Same read-out and setting: with `CC1CN(S(=O)(=O)c2cccc(C(=O)OCc3cc(=O)oc4cc(O)ccc34)c2)CC(C)O1` (configuration not stated) the figure was 15.8 µM [falling, partial curve]; with `COc1ccc(Cl)cc1NC(=O)Cn1ccn(-c2cc(C)cc(C)c2)c(=O)c1=O`, 0.251 µM [falling, full curve, poor fit].
Same read-out and setting: as for `CCOc1cccc(CNC(=O)c2ccc(N3CCCC3)c(NC(=O)NCc3ccccc3)c2)c1`, the figure is 15.8 µM [falling, partial curve]; as for `Cc1ccccc1CNC(=O)CCS(=O)(=O)c1cc2c3c(c1)CCN3C(=O)CC2`, 50.1 nM [rising, full curve] [measured here: IkB-luc green channel].
Regarding `CCC[C@@H]1O[C@@H]2C[C@@H]3[C@@H]4CCC5=CC(=O)C=C[C@@]5(C)[C@H]4[C@H](O)C[C@@]3(C)[C@@]2(C(=O)CO)O1`, under setting [1], the AC50 is 0.794 nM [rising, full curve, poor fit] [measured here: IkB-luc green channel].
Same read-out and setting: with `CCOc1ccc(N(CC(=O)Nc2cccc(Cl)c2)S(=O)(=O)c2c(C)noc2C)cc1` the figure was 6.31 µM [falling, partial curve].
